Some of the results follow.

Protein sequences, listed by entry. Tags and fused reporters are not part of them.
UniProt Q0JBA9, entry or part of it: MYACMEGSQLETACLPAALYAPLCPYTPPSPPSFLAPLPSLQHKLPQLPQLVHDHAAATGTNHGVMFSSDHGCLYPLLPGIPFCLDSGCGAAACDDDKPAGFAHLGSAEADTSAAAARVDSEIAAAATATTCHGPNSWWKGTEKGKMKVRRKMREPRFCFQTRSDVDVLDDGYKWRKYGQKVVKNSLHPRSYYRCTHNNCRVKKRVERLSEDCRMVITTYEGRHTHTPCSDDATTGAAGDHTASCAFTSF

The assay deals with OsWRKY34 (Oryza sativa, UniProt Q0JBA9 1-250). Briefly: protein-binding microarray (RPBM); PBS, 2% BSA, 51.3 ng/ul salmon testes DNA, 50 uM zinc acetate, 200 nM TF, 25 C, 1 h; high values mean tight binding. Conditions: protein: recombinant; tags: N-terminal polyhistidine and DsRed monomer fusion (pET32a); label: CyDye5-dUTP incorporated in the synthesized complementary strand; 3' TTTTT single-stranded linker to array surface; dsDNA, one strand shown. A digest of the protocol: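 Transcription factors were each fused at the N-terminus to a polyhistidine tag plus DsRed and expressed in E. coli BL21-CodonPlus before Ni–NTA purification. Binding to a double-stranded custom Agilent array was carried out with 200 nM protein at 25 °C for 1 h in PBS, 2% BSA, salmon testes DNA and 50 µM zinc acetate. The binding signal is per-feature fluorescence intensity, in arbitrary units, on an Axon 4000B scanner.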
For “ACCATCAGCTGGGTCCTCGTATCATAGTATGCCGTACGGCCGGAGTCACCTAGTGCAG”, the binding signal is 8560 fluorescence intensity (a.u.).
As for “TGTTGTTGGTTTGGGGATTTAATATGGATTGGAGCAGAAGCGGAGTCACCTAGTGCAG”, the figure is 8240 fluorescence intensity (a.u.); as for “CATATTCCTTTCTTGATTCTGTCCCGTCGCCCCACAAGTTCGGAGTCACCTAGTGCAG”, 8250 fluorescence intensity (a.u.).
Regarding “TTTCGGTTTCCCTTTCTTCATTCTTCTTCTTCTCATCCCACGGAGTCACCTAGTGCAG”, the binding signal was 8210 fluorescence intensity (a.u.).
For “GGACGTACATATCCCTGTATCAATGCGCCTTTCTTGACGACGGAGTCACCTAGTGCAG” the value was 10200 fluorescence intensity (a.u.).
In the case of “CTTAATTTGCTGGTTGGTTTATCAGATACATCCAAATTCACGGAGTCACCTAGTGCAG”, the binding signal is 8250 fluorescence intensity (a.u.).
In the case of “ATATATATATATGATGTGCGCCGCGTTGTGTTTCGCTTTTCGGAGTCACCTAGTGCAG”, the binding signal is 8140 fluorescence intensity (a.u.).
For “AACCTAACCACCAGTTGAGCTATTCTCACTTTGGTATTATCGGAGTCACCTAGTGCAG” the value was 8320 fluorescence intensity (a.u.); for “AAGTTTGGCTCTGCGTGTCTCTAAAAATTTTCAGTCTCCTCGGAGTCACCTAGTGCAG”, 8190 fluorescence intensity (a.u.); for “ATCTTTCGCCATACCTCCGCCGTAAAAGGACAGGTTACAACGGAGTCACCTAGTGCAG”, 9160 fluorescence intensity (a.u.).
For “AACACATCACAAGTCAATGTTTCTAACTTTAACTTTATCGCGGAGTCACCTAGTGCAG” the value was 8210 fluorescence intensity (a.u.).
With “TAGTGGGTGTGGGTGGGTGGCAGGCAGAGGAGGAGCCAAGCGGAGTCACCTAGTGCAG”, the binding signal was 11100 fluorescence intensity (a.u.).
“TCCGTTTCCCATTTCGTCGCGACCCAAAACCCTCACCTCCCGGAGTCACCTAGTGCAG”: the binding signal was 9520 fluorescence intensity (a.u.).
For the sequence “CGTTGACTTTTTTTCAACGTTTAATAATTTATCTTATTCACGGAGTCACCTAGTGCAG”, the binding signal was 12900 fluorescence intensity (a.u.).
For “CGCATGCAACGTTCGGTTCTCTCGGTGCTTATCCGTAGTGCGGAGTCACCTAGTGCAG” the value was 8770 fluorescence intensity (a.u.); for “CACCTTACTTTACCATTTTCCATTGCGGTTACTCTTATCTCGGAGTCACCTAGTGCAG”, 15400 fluorescence intensity (a.u.); for “TTTTTTTGTGTTTCCTTCGCTTCGAATCCTTGAAATCTCCCGGAGTCACCTAGTGCAG”, 8780 fluorescence intensity (a.u.).
As for “ATACAGTACAGGATCCTCTAGCTTCTCCACTTCTGACTTTCGGAGTCACCTAGTGCAG”, the figure is 10200 fluorescence intensity (a.u.).
As for “TACAGGTGTTTTCATCAACCTTATCTCTTTTTTCTTCATGCGGAGTCACCTAGTGCAG”, the figure is 8190 fluorescence intensity (a.u.).
For “CTCGGCACTATCCTCGGTCTCTGTGCTTATTGAGCCCATTCGGAGTCACCTAGTGCAG”, the binding signal was 8910 fluorescence intensity (a.u.).
As for “ATTTGGAGGTAGGAGGAGAGGTGGGGAAGGAGATTGCCAACGGAGTCACCTAGTGCAG”, the figure is 8300 fluorescence intensity (a.u.); as for “CAGTATAGCAACACTTCTCTAGGCATTACTACTACATTAACGGAGTCACCTAGTGCAG”, 8960 fluorescence intensity (a.u.).
For “TCTTGACAATGATACGTCTCTCTTCTTTTTTTCTCATGCCCGGAGTCACCTAGTGCAG” the value was 8500 fluorescence intensity (a.u.); for “AAATGCTATAGTTGTATATTGGCTTTGTTTAGTTCCATACCGGAGTCACCTAGTGCAG”, 8090 fluorescence intensity (a.u.).
On to “CGCGTCTATTTTTTAGTTCTTTCTTTCCCATGGTGCTTCTCGGAGTCACCTAGTGCAG”, for which the binding signal is 9820 fluorescence intensity (a.u.).
Regarding “TAATTCGGGGTTTGAAATTTTTTGTTTTTGGCGACTTTCACGGAGTCACCTAGTGCAG”, the binding signal is 10400 fluorescence intensity (a.u.).
Take “GGTGGGGATGGTGGCGAGCTCCCGCTACGCCGCCTGCACGCGGAGTCACCTAGTGCAG”: the binding signal is 8270 fluorescence intensity (a.u.).
For “TCAGTTTTTCTAGTTCATAGGTCAGTAAATCATTTGCTATCGGAGTCACCTAGTGCAG” the value was 8960 fluorescence intensity (a.u.).
On to “GGTCTGGATATTCTTGTTGGTATTGTTCTCCCAATTAATACGGAGTCACCTAGTGCAG”, for which the binding signal was 12000 fluorescence intensity (a.u.).
“CACCATTGACTTTTTAGCATATGTTTGACCGTTCGTCTTACGGAGTCACCTAGTGCAG”: the binding signal is 18200 fluorescence intensity (a.u.).
Regarding “GATATTTTTCTAGTTATATACTATATTATATAATATACCCCGGAGTCACCTAGTGCAG”, the binding signal was 8030 fluorescence intensity (a.u.).
For “TTTTTCTTCTGGGATCTTCTTAAATACTTGTTGCATATAACGGAGTCACCTAGTGCAG” the value was 9490 fluorescence intensity (a.u.); for “TCCGTCAGCGCTTCCATCTTCCACTCCACATCACGATCGCCGGAGTCACCTAGTGCAG”, 10400 fluorescence intensity (a.u.); for “ATTCTTTGCTTCTTGGTGCTTCCATGTCACCCTACTTTATCGGAGTCACCTAGTGCAG”, 9010 fluorescence intensity (a.u.).
As for “ATCATAATTATCGTTCAGTCTTTTTCATGTTTTTGTTCCTCGGAGTCACCTAGTGCAG”, the figure is 11500 fluorescence intensity (a.u.); as for “GCTGTTGTTTTTTTGTCCCATGTCTCTGCACAGAGCCACACGGAGTCACCTAGTGCAG”, 9510 fluorescence intensity (a.u.); as for “ACTCCGTTATATCATCGACCGTATTCGAGCTATCTCCTATCGGAGTCACCTAGTGCAG”, 13700 fluorescence intensity (a.u.).
In the case of “TAGGAGGGAAAGAGAGGGTGGGTATTTTTCCGAGTAGTTCCGGAGTCACCTAGTGCAG”, the binding signal is 10100 fluorescence intensity (a.u.).
Take “GCCCAGTTTTTGCGCGCGCGCCGCTGAATCCTCAAAAATGCGGAGTCACCTAGTGCAG”: the binding signal was 8380 fluorescence intensity (a.u.).
As for “GAAAGGCATCAAAGCTACATGTCAAATCAGCTCTAACCGTCGGAGTCACCTAGTGCAG”, the figure is 8780 fluorescence intensity (a.u.); as for “GCGGTCTATGCTATCACCAAGTAGTAGTTACATCTCATCTCGGAGTCACCTAGTGCAG”, 8580 fluorescence intensity (a.u.).
In the case of “GTTTGTGTGCTTGGACTCATGTTTGTTATTGTCCATTTTACGGAGTCACCTAGTGCAG”, the binding signal is 9550 fluorescence intensity (a.u.).
